{"source": "PubChem BioAssay AID1159578 (Peter MacCallum Cancer Centre, 2015)", "screen": "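siRNA pools altering how lymphatic endothelial cells close a scratch wound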 (primary screen)", "cell system": "human lymphatic endothelial cells", "reagents": "siRNA pool against human genes, 40 nM", "duration": "48 h after transfection", "detection": "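High-content imaging of dye-stained cells in a scratch assay measures filled wound area and nuclei per well; duplicate means given as ratio to mock and robust z-score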", "direction": "migration robust z-score: higher = faster migration into the scratch; nuclei per well: higher = more cells in the well", "call rule": "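Migration changed when robust z exceeds 2 or falls below -2 and mean nuclei number is at least 3300; otherwise not called changed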", "meaning of the calls": "active = migration changed; inactive = no migration change, or too few cells", "note": "In all, the deposit lists about 18,000 reagents; this is a random part of them. About 1,030 of them (5.7%) were called active. 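Inactive calls also include pools with fewer than 3300 nuclei, whose migration was not assessed.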 Raw values are not corrected between plates. Unmarked entries are inactive. Further read-outs or replicates are left out here."}
{"gene": "PGRMC2 (progesterone receptor membrane component 2)", "migration robust z-score": -0.62, "migration class with cell-count check": "migration z between -2 and 2; enough cells", "nuclei per well, duplicate mean": 6698}
{"gene": "KCTD9 (potassium channel tetramerization domain containing 9)", "migration robust z-score": -1.84, "migration class with cell-count check": "migration z between -2 and 2; enough cells", "nuclei per well, duplicate mean": 5178}
{"gene": "DNAAF19 (dynein axonemal assembly factor 19)", "migration robust z-score": "2.64 (active)", "migration class with cell-count check": "migration z above 2; enough cells", "nuclei per well, duplicate mean": 4841}
{"gene": "ANKRD20A1 (ankyrin repeat domain 20 family member A1)", "migration robust z-score": 0.92, "migration class with cell-count check": "migration z between -2 and 2; enough cells", "nuclei per well, duplicate mean": 6186}
{"gene": "GAS1 (growth arrest specific 1)", "migration robust z-score": 0.87, "migration class with cell-count check": "migration z between -2 and 2; enough cells", "nuclei per well, duplicate mean": 4976}
{"gene": "PIK3AP1 (phosphoinositide-3-kinase adaptor protein 1)", "migration robust z-score": "-2.13 (active)", "migration class with cell-count check": "migration z below -2; enough cells", "nuclei per well, duplicate mean": 3867}
{"gene": "MCUB", "migration robust z-score": 0.46, "migration class with cell-count check": "migration z between -2 and 2; enough cells", "nuclei per well, duplicate mean": 6411}
{"gene": "EEF2K (eukaryotic elongation factor 2 kinase)", "migration robust z-score": -1.38, "migration class with cell-count check": "migration z between -2 and 2; enough cells", "nuclei per well, duplicate mean": 4547}

Continued; the last 3 above are carried over.
{"gene": "PIK3AP1 (phosphoinositide-3-kinase adaptor protein 1)", "migration robust z-score": "-2.13 (active)", "migration class with cell-count check": "migration z below -2; enough cells", "nuclei per well, duplicate mean": 3867}
{"gene": "MCUB", "migration robust z-score": 0.46, "migration class with cell-count check": "migration z between -2 and 2; enough cells", "nuclei per well, duplicate mean": 6411}
{"gene": "EEF2K (eukaryotic elongation factor 2 kinase)", "migration robust z-score": -1.38, "migration class with cell-count check": "migration z between -2 and 2; enough cells", "nuclei per well, duplicate mean": 4547}
{"gene": "AKR1C3 (aldo-keto reductase family 1 member C3)", "migration robust z-score": -1.53, "migration class with cell-count check": "migration z between -2 and 2; enough cells", "nuclei per well, duplicate mean": 4436}
{"gene": "TYMS (thymidylate synthetase)", "migration robust z-score": 0.65, "migration class with cell-count check": "migration z between -2 and 2; enough cells", "nuclei per well, duplicate mean": 5738}
{"gene": "CASP3 (caspase 3)", "migration robust z-score": 0.96, "migration class with cell-count check": "migration z between -2 and 2; enough cells", "nuclei per well, duplicate mean": 5798}
{"gene": "MARCHF3 (membrane associated ring-CH-type finger 3)", "migration robust z-score": 0.91, "migration class with cell-count check": "migration z between -2 and 2; enough cells", "nuclei per well, duplicate mean": 6290}
{"gene": "SERINC1 (serine incorporator 1)", "migration robust z-score": -1.88, "migration class with cell-count check": "migration z between -2 and 2; enough cells", "nuclei per well, duplicate mean": 6580}
{"gene": "PLEKHA6 (pleckstrin homology domain containing A6)", "migration robust z-score": 0.24, "migration class with cell-count check": "migration z between -2 and 2; enough cells", "nuclei per well, duplicate mean": 5865}
{"gene": "TIMM10B (translocase of inner mitochondrial membrane 10B)", "migration robust z-score": 0.7, "migration class with cell-count check": "migration z between -2 and 2; enough cells", "nuclei per well, duplicate mean": 4700}
{"gene": "FRA10AC1 (FRA10A associated CGG repeat 1)", "migration robust z-score": -1.44, "migration class with cell-count check": "migration z between -2 and 2; enough cells", "nuclei per well, duplicate mean": 4314}
{"gene": "OVOL2 (ovo like zinc finger 2)", "migration robust z-score": -1.06, "migration class with cell-count check": "migration z between -2 and 2; enough cells", "nuclei per well, duplicate mean": 5197}
{"gene": "CCNH (cyclin H)", "migration robust z-score": -0.08, "migration class with cell-count check": "migration z between -2 and 2; enough cells", "nuclei per well, duplicate mean": 6848}
{"gene": "PID1 (phosphotyrosine interaction domain containing 1)", "migration robust z-score": 0.66, "migration class with cell-count check": "migration z between -2 and 2; enough cells", "nuclei per well, duplicate mean": 6256}
{"gene": "CCDC190 (coiled-coil domain containing 190)", "migration robust z-score": 0.08, "migration class with cell-count check": "migration z between -2 and 2; enough cells", "nuclei per well, duplicate mean": 4532}
{"gene": "PCBP2 (poly(rC) binding protein 2)", "migration robust z-score": 0.23, "migration class with cell-count check": "migration z between -2 and 2; enough cells", "nuclei per well, duplicate mean": 5917}
